# In article PMC6962096:
# By UniProt entry, the sequences of proteins in these tests, tags left out.
# UniProt O00303: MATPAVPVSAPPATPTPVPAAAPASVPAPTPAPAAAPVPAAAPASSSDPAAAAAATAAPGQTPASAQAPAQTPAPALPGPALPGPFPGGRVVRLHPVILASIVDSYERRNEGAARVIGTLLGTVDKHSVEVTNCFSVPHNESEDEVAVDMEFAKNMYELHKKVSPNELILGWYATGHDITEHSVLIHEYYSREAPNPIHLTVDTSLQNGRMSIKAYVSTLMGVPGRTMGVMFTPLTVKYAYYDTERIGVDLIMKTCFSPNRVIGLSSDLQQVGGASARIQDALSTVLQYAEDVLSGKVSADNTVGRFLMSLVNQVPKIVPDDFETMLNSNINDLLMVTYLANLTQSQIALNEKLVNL
# UniProt P40763: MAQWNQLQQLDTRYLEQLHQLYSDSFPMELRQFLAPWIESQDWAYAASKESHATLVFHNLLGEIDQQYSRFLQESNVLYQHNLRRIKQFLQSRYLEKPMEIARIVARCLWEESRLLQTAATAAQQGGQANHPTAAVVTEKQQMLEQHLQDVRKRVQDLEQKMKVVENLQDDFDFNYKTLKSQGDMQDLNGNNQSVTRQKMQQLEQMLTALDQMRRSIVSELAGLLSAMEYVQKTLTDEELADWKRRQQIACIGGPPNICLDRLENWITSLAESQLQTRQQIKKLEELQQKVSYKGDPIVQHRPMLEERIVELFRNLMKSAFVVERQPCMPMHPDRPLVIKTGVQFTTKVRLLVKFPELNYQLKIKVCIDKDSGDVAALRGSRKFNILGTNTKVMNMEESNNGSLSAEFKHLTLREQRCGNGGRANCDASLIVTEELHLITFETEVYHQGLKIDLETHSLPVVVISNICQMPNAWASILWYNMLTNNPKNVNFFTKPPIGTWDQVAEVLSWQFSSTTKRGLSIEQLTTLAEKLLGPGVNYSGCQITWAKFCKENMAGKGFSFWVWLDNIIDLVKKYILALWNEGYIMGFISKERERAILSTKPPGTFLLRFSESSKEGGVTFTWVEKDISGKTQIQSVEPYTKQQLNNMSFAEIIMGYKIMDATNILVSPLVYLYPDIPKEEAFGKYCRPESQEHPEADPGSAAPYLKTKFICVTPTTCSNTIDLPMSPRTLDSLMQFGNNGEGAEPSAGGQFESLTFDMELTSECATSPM
# No constants are given. Whether binding was seen depends on the method and setting. In cells and extracts the contact can be indirect. Some binding calls cover weakened binding; strength is not graded here.
# Molecular target: Flag-M2-tagged EIF3F (eukaryotic translation initiation factor 3F) (human) (UniProt O00303)
# Test: co-IP; Dynabeads protein A coated with 1 µg EIF3F or STAT3 antibody; total proteins of A549-EIF3F cells extracted with RIPA buffer; controls: purified IgG, beads without antibody
substance,measurement,value
Signal transducer and activator of transcription 3 (from UniProt P40763 1-770),binding,binds
